PubChem BioAssay AID1259425 | University of Nebraska Medical Center, 2018
This is a random part of about 14,000 deposited reagents. Not all columns of the deposit are shown. Reagent sequences are not shown. Not given: the time to read-out.

- Aim: 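Find knockdowns that reproduce the gene expression pattern seen when KSR1 is lost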 (primary screen)
- Cell system: HCT116 human colon cancer cells
- Knock-down reagent: siRNA pool against human genes, 50 nM siRNA
- Read-out: 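After 50 nM siRNA pool, branched-DNA assay measures six marker transcripts per well, minus blank, normalised to the geometric mean of two housekeeping transcripts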
- Reading the numbers: BNIP3L mRNA: higher = more BNIP3L transcript after knockdown; NDRG1 mRNA: higher = more NDRG1 transcript after knockdown; BNIP3 mRNA: higher = more BNIP3 transcript after knockdown

target gene	BNIP3L mRNA, set 1	NDRG1 mRNA, set 1	BNIP3 mRNA, set 1
WDR93	0.152	0.51	0.298
ZNF223	0.2	0.122	0.266
STOML2	0.158	0.701	0.229
RPL17	0.195	0.084	0.375
MB	0.065	0.145	0.379
HTR4	0.119	0.181	0.273

2 of these entries, reformatted:
| target gene | BNIP3L mRNA, set 1 | NDRG1 mRNA, set 1 | BNIP3 mRNA, set 1 |
| --- | --- | --- | --- |
| WDR93 | 0.152 | 0.51 | 0.298 |
| ZNF223 | 0.2 | 0.122 | 0.266 |

The listing continues:
target gene	BNIP3L mRNA, set 1	NDRG1 mRNA, set 1	BNIP3 mRNA, set 1
RUVBL2	0.113	0.285	0.232
CFHR3	0.142	0.46	0.23
ZNF767P	0.104	0.634	0.417
ESYT3	0.446	0.163	0.608
FICD	0.0887	0.185	0.259
RPS6KA1	0.0799	0.121	0.218
LINC00312	0.12	0.258	0.223
CALCOCO1	-0.0996	0.551	0.301
SARM1	0.172	0.519	0.475
FYRD1	0.428	0.347	0.365
TEKT1	0.206	0.232	0.369
SEC62	0.201	0.0696	0.653
PLGLB2	0.0599	0.383	0.394
GAB1	0.0943	0.321	0.11
